Measurements reported in PubChem BioAssay AID1508597 (Cure First, 2020)
Purpose: 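Survival screen with siRNA in ovarian cancer cells derived from patients, with or without rucaparib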 (primary screen). Cells: human ovarian carcinoma lines grown from tumours: OCI-P5x (papillary serous) and OCI-C5x (clear cell). Reagents: siRNA pool against human genes, 1.25 pmol siRNA per well. Timing: 72 h or 96 h, depending on the cell culture. Conditions: rucaparib 20 µM (about IC30) or vehicle, present until read-out. Rucaparib or vehicle: Rucaparib. Cell line: OCI-C5x (clear cell). Measured: 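ATP luminescence measured at 72 or 96 h according to the culture, then normalised and expressed as percent viability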. Reading the numbers: viability, normalised: higher = more viable cells remaining. Hit rule: 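a well counts as a hit if its normalised viability is under 80 percent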. Calls: active = viability under 80%; inactive = viability 80% or more.
Shown is an unselected part of the about 2,100 reagents, under one of the conditions tested. 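Calls flag viability under 80% in either arm, not effects specific to rucaparib; the reference for percent is not stated.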 Some reagents were tested in more than one well and are listed for each. The record does not give: the 100% reference.

target,technical replicate,"viability, normalised (%)",outcome
PYGO1 (pygopus family PHD finger 1),1,31.7,active
PYGO1 (pygopus family PHD finger 1),2,41,active
PYGO1 (pygopus family PHD finger 1),3,37.5,active
MAPKAPK5 (MAPK activated protein kinase 5),1,61.8,active
MAPKAPK5 (MAPK activated protein kinase 5),2,59.2,active
MAPKAPK5 (MAPK activated protein kinase 5),3,63,active
NCOR1 (nuclear receptor corepressor 1),1,44.3,active
NCOR1 (nuclear receptor corepressor 1),2,43.6,active
NCOR1 (nuclear receptor corepressor 1),3,38.1,active
CDC42BPG (CDC42 binding protein kinase gamma),1,66.2,active
CDC42BPG (CDC42 binding protein kinase gamma),2,49.9,active
CDC42BPG (CDC42 binding protein kinase gamma),3,52,active
MIER1 (MIER1 transcriptional regulator),1,40.9,active
MIER1 (MIER1 transcriptional regulator),2,52.5,active
MIER1 (MIER1 transcriptional regulator),3,39,active
MED23 (mediator complex subunit 23),1,39.8,active
MED23 (mediator complex subunit 23),2,30.8,active
MED23 (mediator complex subunit 23),3,37.7,active
PIK3CA,1,35.9,active
PIK3CA,1,33.6,active
PIK3CA,2,29.7,active
PIK3CA,2,35.7,active
PIK3CA,3,36.3,active
PIK3CA,3,37.7,active
ATRIP (ATR interacting protein),1,35.6,active
ATRIP (ATR interacting protein),2,28.4,active
ATRIP (ATR interacting protein),3,60.6,active
GTF3C4 (general transcription factor IIIC subunit 4),1,27.2,active
GTF3C4 (general transcription factor IIIC subunit 4),2,30.1,active
GTF3C4 (general transcription factor IIIC subunit 4),3,37.5,active
DGUOK (deoxyguanosine kinase),1,45.7,active
DGUOK (deoxyguanosine kinase),2,46.6,active
DGUOK (deoxyguanosine kinase),3,54.1,active
PCM1 (pericentriolar material 1),1,38.6,active
PCM1 (pericentriolar material 1),2,34.3,active
PCM1 (pericentriolar material 1),3,39.5,active
FANCF (FA complementation group F),1,48,active
FANCF (FA complementation group F),2,35.1,active
FANCF (FA complementation group F),3,55.8,active
